From the supplement of paper PMC12889115
The list shows a part of the results. Values are raw readings; no control value is given beside them.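 Primary screen: polymyxin B was added at a level permeabilizing Salmonella outer membranes while sparing inner membranes. DMSO wells, both with and without polymyxin B, established maximum growth. Plate-to-plate variation meant each plate was ranked on its own, and the lowest-OD600 compounds were selected as hits.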

System: Salmonella enterica serovar Typhimurium SL1344
Assay: bacterial growth OD600 after 18 h with compound and polymyxin B; higher = more bacterial growth (less inhibition)
Conditions: 50 µM, Mueller-Hinton broth

SMILES	bacterial growth OD600 (polymyxin B 0.75 µg/mL)	bacterial growth OD600 (polymyxin B 1 µg/mL)
COCC(=O)N1CCc2[nH]nc(-c3ccc4c(c3)OCO4)c2C1	0.868	
Cc1nc2sccn2c1C(=O)NC1CCCN(CCc2ccccc2)C1 (stereo unspecified)		0.909
O=C(C1CCN(c2nc3nonc3nc2NC2CCCC2)CC1)N1CCCC1		0.892
C=CCC(=O)N1CCCC1C(=O)Nc1ccc(-c2nc3ccccc3o2)cc1 (stereo unspecified)	0.881	
O=C1CCC(CCC(=O)N2CCOc3ccccc3C2)(Cc2ccc3ccccc3c2)N1 (stereo unspecified)	0.864	
COc1ccc(CC2(CCC(=O)N[C@@H](Cc3ccccc3)C(N)=O)CCC(=O)N2)c(F)c1 (stereo partly specified)	0.86	
CC1(C(=O)NC2CC(=O)N(CCc3ccccc3)C2)CC1 (stereo unspecified)		1.09
Cc1nnc(CNC(=O)c2coc(COc3ccc(F)cc3)n2)o1		0.951
Cc1ccc2c(c1)CN(CC(=O)NCc1nc3c(s1)CCCC3)CC(c1ccsc1)O2 (stereo unspecified)	0.001	
O=C(Nc1cccc(-n2cccn2)c1)C1CCCN1C(=O)C1CCCC1 (stereo unspecified)		0.971
C=CCN(CC=C)C(=O)c1cc(COc2ccccc2SC)on1		0.667
Cc1csc(CN(C)C(=O)C2CCC(=O)N(Cc3ccc(Cl)cc3)C2)n1 (stereo unspecified)		0.742
CC1(C(=O)N2CCCC2C(=O)Nc2ccc(-c3nc4ccccc4o3)cc2)CC1 (stereo unspecified)	0.888	
O=C1CCC(CCC(=O)N2CCC(c3ccccc3F)C2)(Cc2cccc3ccccc23)N1 (stereo unspecified)	0.073	
COc1cccc(CN2CCN(Cc3cccc4nonc34)CC2CCO)c1 (stereo unspecified)		0.82
COc1ccc(OC)c(-c2cc(Cl)c3c(c2)CC(CNC(=O)c2cc(C)oc2C)O3)c1 (stereo unspecified)	0.005	
CSCCCNC(=O)c1oc2ccc(C)cc2c1C		0.012
CSc1ccccc1N1C(=O)CN(C(=O)Cc2ccc3c(c2)OCO3)CC1C (stereo unspecified)	0.857	
O[C@@H]1CN(Cc2ccc3c(c2)OCCO3)CC[C@H]1N1CCN(c2ccccn2)CC1		0.842
COc1ccccc1/C=C/CN1CCNC(=O)C1CC(=O)N1CCCN(C=O)CC1 (stereo unspecified)		1.27
Cc1cnc(SCCN2CCOCC2)nc1C1CCCN(C(=O)c2ccc(OC(C)C)cc2)C1 (stereo unspecified)	0.842	

2 compounds picked at random from the list so far:
SMILES	bacterial growth OD600 (polymyxin B 0.75 µg/mL)	bacterial growth OD600 (polymyxin B 1 µg/mL)
O=C(Nc1cccc(-n2cccn2)c1)C1CCCN1C(=O)C1CCCC1 (stereo unspecified)		0.971
Cc1ccc2c(c1)CN(CC(=O)NCc1nc3c(s1)CCCC3)CC(c1ccsc1)O2 (stereo unspecified)	0.001	
